PubChem BioAssay AID686943 | Drosophila RNAi Screening Center, 2013
The deposit covers about 23,000 reagents; this is an unselected part of those that have a named target and a result. 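Extra replicates exist only for a retested subset of genes; insulin dose and duration not given; both raised and lowered dpERK matter.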 Further read-outs or replicates are left out here. Not given: the amount of reagent, the time to read-out.

Aim: 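Knockdowns that increase or decrease active ERK after insulin receptor stimulation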 (primary screen)
Cell system: Drosophila S2R+ haemocyte-like cells expressing YFP-tagged ERK (Rolled)
Reagents: long dsRNA against Drosophila genes
Conditions: insulin stimulation versus unstimulated cells; dose and duration not given
Measurement: 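Antibody staining for doubly phosphorylated ERK divided by ERK-YFP signal, as plate z-scores, in insulin-treated and untreated cells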
Direction: replicate 1, z-score of dpERK with insulin and replicate 2, z-score of dpERK with insulin: higher = more active ERK per ERK-YFP after insulin

CG32115 [DRSC22607] gave replicate 1, z-score of dpERK with insulin -0.3; replicate 2, z-score of dpERK with insulin -0.18.
Depletion of CG1513 [DRSC05194] gave: replicate 1, z-score of dpERK with insulin -0.5; replicate 2, z-score of dpERK with insulin -0.31.
Depletion of CG1513 [DRSC06553] resulted in: replicate 1, z-score of dpERK with insulin -2.53; replicate 2, z-score of dpERK with insulin -0.85.
CG1513 [DRSC06554] scored replicate 1, z-score of dpERK with insulin 0.08; replicate 2, z-score of dpERK with insulin 0.14.
CycB (Cyclin B) [DRSC04605] gave replicate 1, z-score of dpERK with insulin -0.43; replicate 2, z-score of dpERK with insulin -0.31.
For Scamp [DRSC20286] the deposit lists replicate 1, z-score of dpERK with insulin -0.21; replicate 2, z-score of dpERK with insulin -0.71.
Knock-down of CG17999 [DRSC04300] resulted in: replicate 1, z-score of dpERK with insulin 0.22; replicate 2, z-score of dpERK with insulin 0.14.
slp1 (sloppy paired 1) [DRSC00835] scored replicate 1, z-score of dpERK with insulin 0.6; replicate 2, z-score of dpERK with insulin 1.32.
Against FIG4 (FIG4 phosphoinositide 5-phosphatase) [DRSC00515] the deposit lists replicate 1, z-score of dpERK with insulin 0.8; replicate 2, z-score of dpERK with insulin 1.26.
crq (croquemort) [DRSC00810] scored replicate 1, z-score of dpERK with insulin 0.28; replicate 2, z-score of dpERK with insulin 0.05.
CG13510 [DRSC04152] gave replicate 1, z-score of dpERK with insulin 0.54; replicate 2, z-score of dpERK with insulin 0.51.
Silencing of CG34203 [DRSC03855] resulted in: replicate 1, z-score of dpERK with insulin 0.15; replicate 2, z-score of dpERK with insulin 0.93.
CG7900 [DRSC16336] gave replicate 1, z-score of dpERK with insulin 0.87; replicate 2, z-score of dpERK with insulin 0.61.
After knock-down of CG7900 [DRSC21343], the screen gave replicate 1, z-score of dpERK with insulin 0.58; replicate 2, z-score of dpERK with insulin 0.74.
After knock-down of CG1486 [DRSC20508], the screen gave replicate 1, z-score of dpERK with insulin -0.44; replicate 2, z-score of dpERK with insulin 0.8.
Myb (Myb oncogene-like) [DRSC20260] scored replicate 1, z-score of dpERK with insulin -1.74; replicate 2, z-score of dpERK with insulin -0.93.
Ucp4A (Uncoupling protein 4A) [DRSC19996] scored replicate 1, z-score of dpERK with insulin 1.01; replicate 2, z-score of dpERK with insulin 0.12.
With knock-down of CG14377 [DRSC14837] the results were replicate 1, z-score of dpERK with insulin 0.02; replicate 2, z-score of dpERK with insulin -0.07.
Knock-down of niki (nimA-like kinase) [DRSC14285] gave: replicate 1, z-score of dpERK with insulin 0.47; replicate 2, z-score of dpERK with insulin 0.
Rtca (RNA 3'-terminal phosphate cyclase) [DRSC18517] scored replicate 1, z-score of dpERK with insulin 0; replicate 2, z-score of dpERK with insulin -0.47.
Rtnl1 (Reticulon-like1) [DRSC00851] gave replicate 1, z-score of dpERK with insulin -0.65; replicate 2, z-score of dpERK with insulin -0.63.
Against Rtnl1 (Reticulon-like1) [DRSC02684], the values are replicate 1, z-score of dpERK with insulin 0.67; replicate 2, z-score of dpERK with insulin 0.76.
For Rtnl1 (Reticulon-like1) [DRSC03122] the deposit lists replicate 1, z-score of dpERK with insulin -0.06; replicate 2, z-score of dpERK with insulin 0.38.
For Rtnl1 (Reticulon-like1) [DRSC21698], the entry reads replicate 1, z-score of dpERK with insulin 0.33; replicate 2, z-score of dpERK with insulin 0.66.
With knock-down of Mst33A [DRSC03371] the results were replicate 1, z-score of dpERK with insulin 0.75; replicate 2, z-score of dpERK with insulin 0.19.
Ptpmeg2 (Protein tyrosine phosphatase Meg2) [DRSC18277] scored replicate 1, z-score of dpERK with insulin -1.53; replicate 2, z-score of dpERK with insulin -0.3.
Depletion of Ptpmeg2 (Protein tyrosine phosphatase Meg2) [DRSC18278] gave: replicate 1, z-score of dpERK with insulin 1.02; replicate 2, z-score of dpERK with insulin 0.55.
Depletion of CG32726 [DRSC17521] gave: replicate 1, z-score of dpERK with insulin 0.47; replicate 2, z-score of dpERK with insulin 0.21.
Depletion of Drsl1 (Drosomycin-like 1) [DRSC22490] came out at: replicate 1, z-score of dpERK with insulin -0.24; replicate 2, z-score of dpERK with insulin -0.13.
Silencing of CG10171 [DRSC09711] resulted in: replicate 1, z-score of dpERK with insulin 0.16; replicate 2, z-score of dpERK with insulin -0.09.
After knock-down of CG11044 [DRSC06026] the results were replicate 1, z-score of dpERK with insulin -0.85; replicate 2, z-score of dpERK with insulin 0.06.

2 entries from above, set out differently:
| gene knocked down | DRSC id | replicate 1, z-score of dpERK with insulin | replicate 2, z-score of dpERK with insulin |
| --- | --- | --- | --- |
| Rtnl1 (Reticulon-like1) | DRSC00851 | -0.65 | -0.63 |
| Rtnl1 (Reticulon-like1) | DRSC02684 | 0.67 | 0.76 |
